Measured values taken from the supplement of paper PMC12067093, “Discovery and optimisation of a covalent ligand for TRIM25 and its application to targeted protein ubiquitination” (Chemical Science, 2025).
This is one part of the list.

Chains of the proteins cited; added tags and fusions are not shown. Lines headed by an entry give the natural chain unless they say otherwise; changes in a name come on top.
UniProt Q8N584: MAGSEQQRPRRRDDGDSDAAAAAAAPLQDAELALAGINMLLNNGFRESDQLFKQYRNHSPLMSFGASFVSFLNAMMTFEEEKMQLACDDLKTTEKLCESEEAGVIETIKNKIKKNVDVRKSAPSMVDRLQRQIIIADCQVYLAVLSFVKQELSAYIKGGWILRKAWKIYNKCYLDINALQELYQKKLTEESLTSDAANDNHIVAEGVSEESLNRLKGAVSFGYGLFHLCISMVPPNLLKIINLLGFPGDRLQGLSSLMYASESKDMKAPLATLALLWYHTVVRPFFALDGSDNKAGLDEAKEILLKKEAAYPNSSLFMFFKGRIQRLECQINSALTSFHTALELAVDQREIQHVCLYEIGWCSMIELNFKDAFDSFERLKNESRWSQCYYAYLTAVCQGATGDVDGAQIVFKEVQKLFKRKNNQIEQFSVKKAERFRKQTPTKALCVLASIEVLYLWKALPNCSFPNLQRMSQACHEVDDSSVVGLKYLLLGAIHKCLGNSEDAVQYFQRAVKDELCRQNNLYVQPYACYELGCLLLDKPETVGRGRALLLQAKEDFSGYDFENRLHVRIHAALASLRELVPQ
UniProt Q5TAX3: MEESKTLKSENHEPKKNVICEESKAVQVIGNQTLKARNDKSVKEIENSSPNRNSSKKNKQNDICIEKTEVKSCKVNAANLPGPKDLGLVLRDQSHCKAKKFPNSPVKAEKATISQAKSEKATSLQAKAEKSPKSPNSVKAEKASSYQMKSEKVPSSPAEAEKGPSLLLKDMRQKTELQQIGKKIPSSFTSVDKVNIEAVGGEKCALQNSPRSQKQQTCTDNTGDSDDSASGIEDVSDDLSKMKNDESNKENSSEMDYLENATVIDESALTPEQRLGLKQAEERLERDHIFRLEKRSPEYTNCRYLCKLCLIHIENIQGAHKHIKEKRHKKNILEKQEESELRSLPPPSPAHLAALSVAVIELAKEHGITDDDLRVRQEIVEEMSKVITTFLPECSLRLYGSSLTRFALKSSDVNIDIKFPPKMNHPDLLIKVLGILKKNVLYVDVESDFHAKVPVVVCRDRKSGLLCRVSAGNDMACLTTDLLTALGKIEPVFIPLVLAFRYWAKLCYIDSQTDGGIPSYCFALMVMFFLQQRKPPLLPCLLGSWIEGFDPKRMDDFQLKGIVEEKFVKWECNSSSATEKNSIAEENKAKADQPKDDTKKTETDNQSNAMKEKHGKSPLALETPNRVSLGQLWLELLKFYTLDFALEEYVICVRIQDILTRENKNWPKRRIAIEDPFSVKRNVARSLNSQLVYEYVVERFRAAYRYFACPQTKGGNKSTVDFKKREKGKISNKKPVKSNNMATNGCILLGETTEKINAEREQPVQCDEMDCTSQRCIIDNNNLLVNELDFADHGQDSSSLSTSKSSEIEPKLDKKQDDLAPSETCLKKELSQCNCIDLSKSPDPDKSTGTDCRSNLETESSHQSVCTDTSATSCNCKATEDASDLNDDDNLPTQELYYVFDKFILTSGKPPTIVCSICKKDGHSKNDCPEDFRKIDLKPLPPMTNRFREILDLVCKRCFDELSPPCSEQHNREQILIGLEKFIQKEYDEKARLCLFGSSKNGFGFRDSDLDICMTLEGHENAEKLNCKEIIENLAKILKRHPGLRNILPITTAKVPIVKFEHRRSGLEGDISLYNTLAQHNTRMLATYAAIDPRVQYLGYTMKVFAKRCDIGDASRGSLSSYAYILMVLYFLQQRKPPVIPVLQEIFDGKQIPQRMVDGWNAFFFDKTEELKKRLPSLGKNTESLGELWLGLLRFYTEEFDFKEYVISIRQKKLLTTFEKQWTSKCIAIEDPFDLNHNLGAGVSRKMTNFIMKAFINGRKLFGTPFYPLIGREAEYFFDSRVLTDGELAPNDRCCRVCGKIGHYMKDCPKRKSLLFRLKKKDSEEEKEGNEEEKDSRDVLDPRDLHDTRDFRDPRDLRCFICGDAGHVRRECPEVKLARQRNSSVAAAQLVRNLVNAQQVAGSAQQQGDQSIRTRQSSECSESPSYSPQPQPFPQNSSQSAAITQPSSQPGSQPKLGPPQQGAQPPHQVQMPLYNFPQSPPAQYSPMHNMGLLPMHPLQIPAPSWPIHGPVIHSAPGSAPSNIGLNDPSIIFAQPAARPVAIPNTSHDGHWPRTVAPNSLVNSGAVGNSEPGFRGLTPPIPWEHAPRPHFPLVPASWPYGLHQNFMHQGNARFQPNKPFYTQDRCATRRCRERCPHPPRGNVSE
UniProt Q7Z4L5: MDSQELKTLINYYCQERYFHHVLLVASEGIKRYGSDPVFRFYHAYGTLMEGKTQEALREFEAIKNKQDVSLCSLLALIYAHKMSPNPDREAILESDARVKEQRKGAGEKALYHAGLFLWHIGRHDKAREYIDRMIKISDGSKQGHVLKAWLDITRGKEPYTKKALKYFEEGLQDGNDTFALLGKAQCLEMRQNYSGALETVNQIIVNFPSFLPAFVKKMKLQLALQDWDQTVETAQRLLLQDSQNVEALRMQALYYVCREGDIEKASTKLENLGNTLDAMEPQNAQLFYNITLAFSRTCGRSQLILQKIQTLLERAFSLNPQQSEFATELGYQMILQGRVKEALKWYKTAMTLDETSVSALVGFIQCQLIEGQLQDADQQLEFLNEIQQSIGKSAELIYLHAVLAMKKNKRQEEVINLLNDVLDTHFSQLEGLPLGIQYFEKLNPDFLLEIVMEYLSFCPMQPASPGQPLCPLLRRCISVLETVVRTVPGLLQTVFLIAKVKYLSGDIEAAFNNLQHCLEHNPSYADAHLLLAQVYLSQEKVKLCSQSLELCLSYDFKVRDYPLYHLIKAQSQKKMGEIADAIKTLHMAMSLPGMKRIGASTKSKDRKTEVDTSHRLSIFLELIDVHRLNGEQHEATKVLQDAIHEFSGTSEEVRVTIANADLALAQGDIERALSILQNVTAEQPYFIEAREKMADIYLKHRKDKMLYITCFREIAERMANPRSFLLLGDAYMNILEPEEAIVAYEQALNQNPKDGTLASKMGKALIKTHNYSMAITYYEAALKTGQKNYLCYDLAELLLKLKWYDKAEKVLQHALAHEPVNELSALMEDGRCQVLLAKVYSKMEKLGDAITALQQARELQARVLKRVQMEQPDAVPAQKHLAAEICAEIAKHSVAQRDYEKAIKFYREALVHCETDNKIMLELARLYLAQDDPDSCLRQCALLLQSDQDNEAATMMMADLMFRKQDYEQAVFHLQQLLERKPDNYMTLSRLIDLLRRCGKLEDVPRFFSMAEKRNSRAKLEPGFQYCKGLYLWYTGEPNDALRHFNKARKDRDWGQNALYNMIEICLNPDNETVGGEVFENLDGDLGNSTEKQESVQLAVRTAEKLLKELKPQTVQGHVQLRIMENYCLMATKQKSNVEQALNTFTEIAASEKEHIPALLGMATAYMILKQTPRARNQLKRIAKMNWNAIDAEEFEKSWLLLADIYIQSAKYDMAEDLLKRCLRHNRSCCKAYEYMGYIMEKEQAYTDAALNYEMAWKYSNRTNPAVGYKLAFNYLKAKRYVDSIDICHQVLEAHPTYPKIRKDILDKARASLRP
UniProt Q14166: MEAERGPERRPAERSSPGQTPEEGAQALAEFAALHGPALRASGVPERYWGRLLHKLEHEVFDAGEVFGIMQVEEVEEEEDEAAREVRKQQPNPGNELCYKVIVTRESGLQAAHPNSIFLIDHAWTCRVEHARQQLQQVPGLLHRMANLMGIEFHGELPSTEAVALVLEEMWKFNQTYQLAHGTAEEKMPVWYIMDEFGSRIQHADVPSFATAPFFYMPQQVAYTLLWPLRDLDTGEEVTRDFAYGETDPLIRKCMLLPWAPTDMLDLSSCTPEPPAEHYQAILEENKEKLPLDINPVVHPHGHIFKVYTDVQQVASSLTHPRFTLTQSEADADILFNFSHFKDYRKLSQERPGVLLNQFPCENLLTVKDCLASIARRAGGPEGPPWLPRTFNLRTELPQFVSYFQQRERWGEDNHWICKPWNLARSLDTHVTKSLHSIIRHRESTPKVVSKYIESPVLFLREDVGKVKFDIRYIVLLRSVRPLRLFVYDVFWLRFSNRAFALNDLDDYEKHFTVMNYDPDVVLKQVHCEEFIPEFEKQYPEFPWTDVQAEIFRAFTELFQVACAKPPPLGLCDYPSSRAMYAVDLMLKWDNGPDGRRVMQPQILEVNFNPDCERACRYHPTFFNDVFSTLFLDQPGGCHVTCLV
UniProt Q9NXH9: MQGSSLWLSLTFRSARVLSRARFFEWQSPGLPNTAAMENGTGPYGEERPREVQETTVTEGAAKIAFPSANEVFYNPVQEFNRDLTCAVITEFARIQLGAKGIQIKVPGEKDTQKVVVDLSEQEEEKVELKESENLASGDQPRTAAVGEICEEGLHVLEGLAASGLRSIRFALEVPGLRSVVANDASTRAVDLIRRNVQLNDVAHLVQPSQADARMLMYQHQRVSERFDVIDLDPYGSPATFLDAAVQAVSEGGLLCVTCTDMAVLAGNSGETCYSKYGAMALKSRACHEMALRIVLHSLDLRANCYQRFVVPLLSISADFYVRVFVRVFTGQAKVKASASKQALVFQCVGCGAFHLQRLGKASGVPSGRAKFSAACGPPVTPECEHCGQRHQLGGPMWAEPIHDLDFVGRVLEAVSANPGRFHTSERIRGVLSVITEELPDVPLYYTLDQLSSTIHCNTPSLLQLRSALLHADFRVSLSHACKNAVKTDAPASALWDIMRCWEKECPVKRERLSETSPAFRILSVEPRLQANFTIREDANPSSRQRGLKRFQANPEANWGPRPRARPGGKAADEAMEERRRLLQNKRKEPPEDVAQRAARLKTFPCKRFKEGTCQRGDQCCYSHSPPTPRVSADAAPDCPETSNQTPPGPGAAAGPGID
UniProt Q6PGP7, whole entry, looked up: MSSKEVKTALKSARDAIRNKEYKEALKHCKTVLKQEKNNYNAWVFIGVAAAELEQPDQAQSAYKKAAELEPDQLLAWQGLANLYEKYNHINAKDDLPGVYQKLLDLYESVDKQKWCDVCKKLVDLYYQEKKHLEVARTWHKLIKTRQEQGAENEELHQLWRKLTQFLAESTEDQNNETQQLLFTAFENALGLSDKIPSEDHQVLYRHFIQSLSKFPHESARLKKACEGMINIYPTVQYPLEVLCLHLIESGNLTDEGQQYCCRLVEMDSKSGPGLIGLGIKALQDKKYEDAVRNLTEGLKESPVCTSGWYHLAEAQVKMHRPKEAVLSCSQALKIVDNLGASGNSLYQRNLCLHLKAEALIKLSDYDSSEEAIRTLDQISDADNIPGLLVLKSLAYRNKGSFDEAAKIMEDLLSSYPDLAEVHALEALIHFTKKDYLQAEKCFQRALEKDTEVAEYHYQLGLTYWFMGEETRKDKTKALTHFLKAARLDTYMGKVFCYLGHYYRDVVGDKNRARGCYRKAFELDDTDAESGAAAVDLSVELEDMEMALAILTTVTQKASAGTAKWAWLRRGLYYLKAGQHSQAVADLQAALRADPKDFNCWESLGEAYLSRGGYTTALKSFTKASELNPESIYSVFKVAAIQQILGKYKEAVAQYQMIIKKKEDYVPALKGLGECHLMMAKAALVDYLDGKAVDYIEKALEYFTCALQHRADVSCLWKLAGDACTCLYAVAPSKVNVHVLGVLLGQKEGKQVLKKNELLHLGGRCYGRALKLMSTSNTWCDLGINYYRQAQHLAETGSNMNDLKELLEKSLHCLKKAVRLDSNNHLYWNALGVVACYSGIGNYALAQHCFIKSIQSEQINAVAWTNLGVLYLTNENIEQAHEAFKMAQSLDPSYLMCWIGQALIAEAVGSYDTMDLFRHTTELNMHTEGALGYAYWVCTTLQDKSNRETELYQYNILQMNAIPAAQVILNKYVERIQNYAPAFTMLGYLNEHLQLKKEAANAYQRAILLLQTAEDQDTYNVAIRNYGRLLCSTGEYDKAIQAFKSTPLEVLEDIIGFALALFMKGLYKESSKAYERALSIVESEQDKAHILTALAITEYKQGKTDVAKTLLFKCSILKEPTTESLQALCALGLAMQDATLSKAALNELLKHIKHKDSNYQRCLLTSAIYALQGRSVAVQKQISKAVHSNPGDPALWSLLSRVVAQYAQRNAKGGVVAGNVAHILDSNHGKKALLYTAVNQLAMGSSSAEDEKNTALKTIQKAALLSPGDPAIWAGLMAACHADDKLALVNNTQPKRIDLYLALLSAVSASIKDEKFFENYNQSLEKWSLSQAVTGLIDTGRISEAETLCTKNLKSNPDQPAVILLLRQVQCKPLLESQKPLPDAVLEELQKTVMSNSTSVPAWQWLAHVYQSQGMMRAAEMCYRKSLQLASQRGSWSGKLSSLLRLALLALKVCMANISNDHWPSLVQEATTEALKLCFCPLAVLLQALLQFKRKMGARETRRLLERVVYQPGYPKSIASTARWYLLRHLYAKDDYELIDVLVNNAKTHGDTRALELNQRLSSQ
UniProt Q99757: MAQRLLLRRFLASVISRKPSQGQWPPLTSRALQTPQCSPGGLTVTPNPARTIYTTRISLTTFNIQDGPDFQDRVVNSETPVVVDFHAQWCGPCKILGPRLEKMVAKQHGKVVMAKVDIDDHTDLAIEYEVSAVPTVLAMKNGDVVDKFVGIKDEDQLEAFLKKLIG

Compound: CC1Cc2ccccc2N1C(=O)C1CCCN(C1)C(=O)CCl (mixture of isomers) [TRIM25 ligand 11 (diastereomer mixture)]
Assay: probe-labelled cysteine peptide fold change vs DMSO (competition) (log2 fold change); higher = less target engagement (more negative = stronger competition)
Conditions: THP-1, incubation time: 4 h
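Note: competitive chemoproteomic profiling in live THP-1 cells with an iodoacetamide desthiobiotin (IA-DTB) probe, comparing probe-labelled peptide intensities in compound-treated cells against DMSO-treated controls.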

| Target | probe-labelled cysteine peptide fold change (10 µM) | probe-labelled cysteine peptide fold change (50 µM) |
| --- | --- | --- |
| TTC39C_Q8N584_475_MSQACHEVDDSSVVGLK (UniProt Q8N584) | 0.0296 | -0.07 |
| TUT4_Q5TAX3_394_VITTFLPECSLR (UniProt Q5TAX3) | -0.149 | -0.0886 |
| TTC21B_Q7Z4L5_914_EALVHCETDNK (UniProt Q7Z4L5) | -0.0273 | -0.0167 |
| TWISTNB_Q3B726_47_YSCLVAGPHQR (UniProt Q3B726) | 0.137 | 0.113 |
| TTF2_Q9UNY4_204_KQEEGAEIQCEAETGGTHKR (UniProt Q9UNY4) | -0.121 | -0.293 |
| TTLL12_Q14166_370_DCLASIAR (UniProt Q14166) | -0.0183 | -0.00856 |
| TTC39C_Q8N584_517_AVKDELCR (UniProt Q8N584) | -0.0987 | -0.126 |
| TTC27_Q6P3X3_549_EFQECVECFER (UniProt Q6P3X3) | 0.0728 | 0.188 |
| TUT4_Q5TAX3_64_QNDICIEK (UniProt Q5TAX3) | 0.0237 | -0.225 |
| TRMT1_Q9NXH9_387_FSAACGPPVTPECEHCGQR (UniProt Q9NXH9) | -0.00524 | -0.111 |
| TTC37_Q6PGP7_675_GLGECHLMMAK (UniProt Q6PGP7) | -0.00388 | -0.151 |
| TTC37_Q6PGP7_1349_ISEAETLCTK (UniProt Q6PGP7) | 0.0652 | -0.146 |
| TRPM4_Q8TD43_759_QSGRPGCCGGR (UniProt Q8TD43) | 0.16 | -0.0447 |
| TSTA3_Q13630_112_KVVSCLSTCIFPDK (UniProt Q13630) | -0.314 | -0.166 |
| TRPV2_Q9Y5S1_134_DGVNACILPLLQIDR (UniProt Q9Y5S1) | 0.0743 | -0.063 |
| TTC21B_Q7Z4L5_72_QDVSLCSLLALIYAHK (UniProt Q7Z4L5) | 0.155 | 0.138 |
| TRMT1_Q9NXH9_621_GDQCCYSHSPPTPR (UniProt Q9NXH9) | -0.202 | -0.373 |
| TTC27_Q6P3X3_299_EGDVLSNCEFTPAPTPQEHLTK (UniProt Q6P3X3) | 0.0346 | -0.306 |
| TRMT2A_Q8IZ69_463_VIGVELCPEAVEDAR (UniProt Q8IZ69) | 0.0959 | -0.244 |
| TRMT61B_Q9BVS5_396_ISEVIVRDWLVCLAK (UniProt Q9BVS5) | -0.0508 | 0.0518 |
| TSR1_Q2NL82_126_ISLPEAMQLLQDRDTGTVHLNELGNTQNFMLLCPR (UniProt Q2NL82) | -0.19 | -0.448 |

| Target | probe-labelled cysteine peptide fold change (10 µM) | probe-labelled cysteine peptide fold change (50 µM) |
| --- | --- | --- |
| TXN2_Q99757_90+93_VVNSETPVVVDFHAQWCGPCK (UniProt Q99757) | -0.411 | -1.31 |
| TUFM_P49411_290_KGDECELLGHSK (UniProt P49411) | -0.0183 | -0.139 |
| TUBGCP6_Q96RT7_1601_YLPEVFAPNAPDVLSCLELR (UniProt Q96RT7) | -0.0378 | 0.0612 |
| TTLL12_Q14166_612_VMQPQILEVNFNPDCER (UniProt Q14166) | -0.045 | -0.126 |
| TTF2_Q9UNY4_1118_FVCEGTVEEK (UniProt Q9UNY4) | -0.132 | -0.00382 |
| TSTA3_Q13630_163_AYFQQYGCTFTAVIPTNVFGPHDNFNIEDGHVLPGLIHK (UniProt Q13630) | 0.225 | 0.239 |
| TTC37_Q6PGP7_1422_AAEMCYR (UniProt Q6PGP7) | -0.0765 | 0.13 |
| TRMT2A_Q8IZ69_225_ACCPLEGVRPSPQQTEYR (UniProt Q8IZ69) | -0.191 | -0.217 |
| TSC2_P49815_1587_DCQPDK (UniProt P49815) | 0.0403 | 0.0682 |
| TUBB6_Q9BUF5_127_ECEHCDCLQGFQLTHSLGGGTGSGMGTLLISK (UniProt Q9BUF5) | 0.0152 | 0.0618 |
| TSR1_Q2NL82_753_CSFDGK (UniProt Q2NL82) | -0.16 | -0.178 |
| TSPAN14_Q8NG11_200_VVNTQCGYDVR (UniProt Q8NG11) | -0.13 | -0.0684 |
| TWNK_Q96RR1_330_CFLVRPGDQQPRPLEALNGGFNLSR (UniProt Q96RR1) | 0.243 | -0.124 |
| TUBGCP5_Q96RT8_670_FAGGDVCVDR (UniProt Q96RT8) | 0.0805 | -0.0117 |
| TTF2_Q9UNY4_13_CPEHGTFCFLK (UniProt Q9UNY4) | -0.00214 | -0.00897 |
| TROVE2_P10155_99_QEPMLFALAICSQCSDISTK (UniProt P10155) | -0.132 | 0.278 |
| TSC2_P49815_519_LATQLLVDLAEGCHTHHFNSLLDIIEK (UniProt P49815) | 0.243 | 0.0595 |
| TST_Q16762_64_HVPGASFFDIEECR (UniProt Q16762) | 0.135 | 0.353 |
| TTC4_O95801_174_HFAEAVNWCDEGLQIDAK (UniProt O95801) | -0.0931 | 0.216 |
| TRRAP_Q9Y4A5_620_VANCQTVR (UniProt Q9Y4A5) | 0.0422 | 0.0573 |
| TTC17_Q96AE7_340_HAVLCQQK (UniProt Q96AE7) | 0.279 | 0.445 |
